{
  "source": "patent US20130059786A1",
  "biological_target": "rat Cthrc1 with C terminal myc/6xHis tag, recombinant, purified from CHO conditioned medium (rat) (UniProt Q8CG08)",
  "experiment": "non-reducing SDS-PAGE and autoradiography of mouse plasma after injection of 125I-Cthrc1",
  "note": "These are yes or no findings as the source states them, for the method shown. Some entries that bind do so weakly or less than the wild type. Sequences can lack the tags named with a protein.",
  "data": [
    {"binder": "rat Cthrc1 with C terminal myc/6xHis tag, recombinant, purified from CHO conditioned medium (protein, radiolabeled with 125I (in the plasma clearance experiment only)) SENPKVKQKALIRQREVVDLYNGMCLQGPAGVPGRDGSPGANGIPGTPGIPGRDGFKGEKGECLRESFEESWTPNYKQCSWSSLNYGIDLGKIAECTFTKMRSNSALRVLFSGSLRLKCRNACCQRWYFTFNGAECSGPLPIEAIIYLDQGSPELNSTINIHRTSSVEGLCEGIGAGLVDVAIWVGTCSDYPKGDASTGWNSVSRIIIEELPKEQKLISEEDLHHHHHH", "values": [
      {"measurement": "binding", "result": "binds"}
    ]}
  ]
}
